No constants are given. Whether binding was seen depends on the method and setting. In cells and extracts the contact can be indirect. Some binding calls cover weakened binding; strength is not graded here. One block for each substance: values may come before it.
How the values were obtained:
[1] = target: p85α (PIK3R1), Flag-tagged (pLenti6.3-PIK3R1-Flag) and doxycycline-inducible HA-tagged (pIND-PIK3R1-HA), in MCF7 LTED cells (UniProt P27986); test: co-IP; MCF7 LTED stably transduced with pIND-PIK3R1-HA and pLenti6.3-PIK3R1-Flag, PRR11 siRNA (0, 1, 5, 25 pM) for 48 h with 2 µg/mL doxycycline; lysates precipitated with HA or Flag antibodies, immunoblot
[2] = target: p85α (PIK3R1), Flag-tagged (pLenti7.3-PIK3R1-Flag), in HEK293 (UniProt P27986); test: proximity ligation; HEK293 cells transfected with pLenti7.3-PIK3R1-Flag and pLenti7.3-PIK3R1-HA, with or without pLX302-PRR11-V5; HA and Flag antibodies, Duolink In Situ Red
[3] = target: p85α (PIK3R1), Flag-tagged (pLenti7.3-PIK3R1-Flag), in HEK293 (UniProt P27986); test: co-IP; HEK293 co-transduced with pLenti7.3-PIK3R1-Flag, -PIK3R1-HA and pLX302-PRR11-V5 (0, 0.25, 0.5, 1 µg); lysates precipitated with HA or Flag antibodies, Flag and HA immunoblot
[4] = target: T1, Proline rich 11 (PRR11), endogenous (human (endogenous in MCF7 and HCC1428)) (UniProt Q96HE9); test: proximity ligation; MCF7 LTED cells, endogenous proteins, PRR11 and p85 antibodies, Duolink In Situ Red
T1 sequence: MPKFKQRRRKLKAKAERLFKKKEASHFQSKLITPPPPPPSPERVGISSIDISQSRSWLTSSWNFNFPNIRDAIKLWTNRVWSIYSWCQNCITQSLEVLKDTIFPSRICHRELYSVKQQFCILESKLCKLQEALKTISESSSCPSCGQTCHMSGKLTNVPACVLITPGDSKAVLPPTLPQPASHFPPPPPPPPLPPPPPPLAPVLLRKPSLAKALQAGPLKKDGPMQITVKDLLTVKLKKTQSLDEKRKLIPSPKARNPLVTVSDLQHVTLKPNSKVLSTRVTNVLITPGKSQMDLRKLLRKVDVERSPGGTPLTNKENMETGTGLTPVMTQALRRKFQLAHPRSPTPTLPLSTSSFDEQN

Amino acid sequences for entries named in this document (tags omitted).
UniProt P27986: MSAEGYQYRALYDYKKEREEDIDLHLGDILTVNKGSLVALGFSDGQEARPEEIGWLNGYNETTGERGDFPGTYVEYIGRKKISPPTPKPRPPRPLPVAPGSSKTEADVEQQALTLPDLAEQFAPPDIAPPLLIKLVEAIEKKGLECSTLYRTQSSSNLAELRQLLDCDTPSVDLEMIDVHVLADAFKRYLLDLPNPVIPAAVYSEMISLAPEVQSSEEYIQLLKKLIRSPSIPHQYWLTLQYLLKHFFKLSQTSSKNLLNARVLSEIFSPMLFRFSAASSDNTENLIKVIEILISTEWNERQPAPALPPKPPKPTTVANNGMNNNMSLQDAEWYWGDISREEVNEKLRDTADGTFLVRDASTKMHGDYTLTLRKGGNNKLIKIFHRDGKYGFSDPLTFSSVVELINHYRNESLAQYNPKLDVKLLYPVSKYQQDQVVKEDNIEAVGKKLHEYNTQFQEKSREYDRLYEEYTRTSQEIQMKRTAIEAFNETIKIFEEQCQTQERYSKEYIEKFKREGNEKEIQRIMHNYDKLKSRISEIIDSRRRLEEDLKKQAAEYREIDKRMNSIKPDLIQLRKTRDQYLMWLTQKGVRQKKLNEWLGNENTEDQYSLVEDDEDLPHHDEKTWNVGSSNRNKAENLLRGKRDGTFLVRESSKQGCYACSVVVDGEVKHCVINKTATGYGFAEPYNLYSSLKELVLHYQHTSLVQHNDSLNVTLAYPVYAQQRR

[5] = target: T1, Proline rich 11 (PRR11), endogenous (human (endogenous in MCF7 and HCC1428)); test: co-IP; MCF7 parental, MCF7 LTED, HCC1428 parental and HCC1428 LTED lysates precipitated with PRR11 or IgG antibodies (Dynabeads Protein G, 1 mg lysate, overnight 4 °C), immunoblot

binding [1]: binds
Substance: p85α (PIK3R1), Flag-tagged (pLenti6.3-PIK3R1-Flag) and doxycycline-inducible HA-tagged (pIND-PIK3R1-HA), in MCF7 LTED cells (from UniProt P27986 1-724)

binding [2]: binds
binding [3]: binds
Substance: p85α (PIK3R1), Flag-tagged (pLenti7.3-PIK3R1-Flag), in HEK293 (from UniProt P27986 1-724)

binding [4]: binds
binding [5]: binds
Substance: p85α regulatory subunit of PI3K, endogenous (from UniProt P27986 1-724)
